The text below walks through data of patent US20070269892A1 (NASTECH PHARMACEUTICAL COMPANY INC., priority 2006, published 2007).

A short description of this data set: general procedure: Fmoc solid-phase peptide synthesis; Wang resin with first amino acid loaded (0.45 mmol/μm); HOBt and DIC double coupling. The settings on record: whole synthesis, scale 90 umol.
“Cys-Trp-(Lys)4-His-(Lys)4-Cys (CWKKKKHKKKKC)”: the crude yield is given as 53.1% and the isolated yield was determined as 21.1%.
For Cys-Trp-(Lys)8-Cys (CWKKKKKKKKC) the same measures were 54.1% and 23.2%.
In turn, “Cys-Trp-(Lys)4-Cys-(Lys)4-Cys (CWKKKKCKKKKC)” came in with a crude yield of 51% and an isolated yield of 20.1%.
For Cys-Trp-(Lys)6-Cys (CWKKKKKKC) the same measures were 53.2% and 25.4%.
For Cys-Trp-(Lys)10-Cys (CWKKKKKKKKKKC) the same measures were 51% and 18.9%.
The like results for “Cys-Trp-His-(Lys)4-His-(Lys)4-His-Cys (CWHKKKKHKKKKHC)” were, in that order, 45.2% and 13.8%.
In turn, Cys-Trp-(Lys)4-Cys (CWKKKKC) returned a crude yield of 61.6% and an isolated yield of 29.6%.
For “Cys-Trp-His-(Lys)4-His-(Lys)4-Cys (CWHKKKKHKKKKC)” the same measures were 39.8% and 17.5%.
